# PubChem BioAssay AID1259405 – NCATS | 2018
# Aim: 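Mouse-designed siRNAs used to find CHO productivity engineering targets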 (primary screen)
# Cell system: Chinese hamster CHO-K1 ovary cells with stable secreted eGFP expression
# Reagents: single siRNA against mouse genes, 0.8 pmol siRNA per well (2 µl of 400 nM stock)
# Duration: 3 days
# Read-out: 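Per-well intracellular GFP measured by laser scanning cytometry, plus viability from ATP luminescence, each relative to plate median of non-targeting control wells, in %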
# Direction: GFP, % of control: higher = more GFP per well, higher productivity; viability (ATP), % of control: higher = more viable cells (more ATP)
# Call rule: 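Called active when intracellular GFP, relative to negative control, is at or above 120%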
# Here is an unselected part of about 50,000 reagents. About 4,000 of them (8%) were called active. 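Mouse siRNA library applied to hamster cells; one well for each siRNA.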 Reagents against one gene are numbered here.
gene,reagent no.,"GFP, % of control","viability (ATP), % of control",Outcome
Samd11 (GeneID 231004),1,167,84,active
Samd11 (GeneID 231004),2,60.8,71.4,inactive
Samd11 (GeneID 231004),3,57.8,67,inactive
Nktr (GeneID 18087),1,112,125,inactive
Nktr (GeneID 18087),2,54.9,64.2,inactive
Nktr (GeneID 18087),3,49.9,41,inactive
Smc4 (GeneID 70099),1,108,104,inactive
Smc4 (GeneID 70099),2,57.9,40.3,inactive
Smc4 (GeneID 70099),3,52.3,67.8,inactive
Tmx1 (GeneID 72736),1,100,104,inactive
Tmx1 (GeneID 72736),2,159,133,active
Tmx1 (GeneID 72736),3,92.3,88.7,inactive
Frmd3 (GeneID 242506),1,70.1,70.7,inactive
Frmd3 (GeneID 242506),2,94.5,46.6,inactive
Frmd3 (GeneID 242506),3,73.3,77.2,inactive
Xpo6 (GeneID 74204),1,69.8,66.5,inactive
Xpo6 (GeneID 74204),2,108,97.6,inactive
Xpo6 (GeneID 74204),3,78.1,94.3,inactive
1700030K09Rik (GeneID 72254),1,55,94.7,inactive
1700030K09Rik (GeneID 72254),2,91,46.1,inactive
1700030K09Rik (GeneID 72254),3,79.9,125,inactive
2310033P09Rik (GeneID 67862),1,49.5,39.6,inactive
2310033P09Rik (GeneID 67862),2,101,60.3,inactive
2310033P09Rik (GeneID 67862),3,45.4,64.5,inactive
Atp5f1d (GeneID 66043),1,52.9,65.3,inactive
Atp5f1d (GeneID 66043),2,75.2,96.4,inactive
Atp5f1d (GeneID 66043),3,40.1,75.7,inactive
Nek1 (GeneID 18004),1,89.2,95.4,inactive
E2f5 (GeneID 13559),1,84.7,85.3,inactive
E2f5 (GeneID 13559),2,92.9,87.4,inactive
Ccnd1 (GeneID 12443),1,64.3,98,inactive
Ccnd1 (GeneID 12443),2,99.9,96,inactive
Eif2s2 (GeneID 67204),1,72.7,93.8,inactive
Eif2s2 (GeneID 67204),2,75.9,50.5,inactive
Eif2s2 (GeneID 67204),3,71.1,86.7,inactive
Gm4983 (GeneID 245297),1,46.5,68.6,inactive
Gm4983 (GeneID 245297),2,92.4,72.8,inactive
Gm4983 (GeneID 245297),3,124,69.8,active
Gpsm2 (GeneID 76123),1,109,93.6,inactive
Gpsm2 (GeneID 76123),2,52.5,53.7,inactive
Gpsm2 (GeneID 76123),3,64.1,32.7,inactive
Serpine1 (GeneID 18787),1,68.7,91.3,inactive
Serpine1 (GeneID 18787),2,59.2,85.6,inactive
Serpine1 (GeneID 18787),3,96.7,80.4,inactive
Mxra7 (GeneID 67622),1,17.5,23.7,inactive
Mxra7 (GeneID 67622),2,104,79.2,inactive
Mxra7 (GeneID 67622),3,74,79.6,inactive
Clu (GeneID 12759),1,89.2,96.8,inactive
Clu (GeneID 12759),2,51.4,79.2,inactive
Clu (GeneID 12759),3,68.6,91.2,inactive
Shprh (GeneID 268281),1,83.8,92.6,inactive
Shprh (GeneID 268281),2,54.8,67.6,inactive
Shprh (GeneID 268281),3,71.8,92.2,inactive
Sergef (GeneID 27414),1,81.1,74.8,inactive
Sergef (GeneID 27414),2,118,101,inactive
Sergef (GeneID 27414),3,40.9,63.3,inactive
Hpca (GeneID 15444),1,84.1,92.5,inactive
Hpca (GeneID 15444),2,71.8,83,inactive
Dhrs7 (GeneID 66375),1,121,93.8,active
Dhrs7 (GeneID 66375),2,57.4,73.6,inactive
Dhrs7 (GeneID 66375),3,79.1,61.9,inactive
Timp2 (GeneID 21858),1,86.4,113,inactive
Timp2 (GeneID 21858),2,76.9,70,inactive
Timp2 (GeneID 21858),3,12,121,inactive
Tmem263 (GeneID 103266),1,68.2,71.9,inactive
Tmem263 (GeneID 103266),2,80,80.3,inactive
Tmem263 (GeneID 103266),3,105,86.8,inactive
Gps1 (GeneID 209318),1,48.2,70.5,inactive
Gps1 (GeneID 209318),2,76.3,81.1,inactive
Gps1 (GeneID 209318),3,124,72.8,active
Qrfp (GeneID 227717),1,46.4,24.1,inactive
Qrfp (GeneID 227717),2,17.6,34.2,inactive
Qrfp (GeneID 227717),3,94.5,107,inactive
Ecd (GeneID 70601),1,80.2,64.9,inactive
Ecd (GeneID 70601),2,59.6,78.8,inactive
Ecd (GeneID 70601),3,53,46,inactive
Rora (GeneID 19883),1,70.1,62.3,inactive
Rora (GeneID 19883),2,74.6,107,inactive
Rora (GeneID 19883),3,49.7,48.7,inactive
Med9 (GeneID 192191),1,66.1,73.7,inactive
Med9 (GeneID 192191),2,94.2,103,inactive
Med9 (GeneID 192191),3,95.2,114,inactive
Evpl (GeneID 14027),1,63.5,109,inactive
Evpl (GeneID 14027),2,57.3,51.6,inactive

An excerpt from the list above, for reference:
gene,reagent no.,"GFP, % of control","viability (ATP), % of control",Outcome
Eif2s2 (GeneID 67204),3,71.1,86.7,inactive
Gm4983 (GeneID 245297),1,46.5,68.6,inactive
Gm4983 (GeneID 245297),2,92.4,72.8,inactive
Gm4983 (GeneID 245297),3,124,69.8,active
Gpsm2 (GeneID 76123),1,109,93.6,inactive
Gpsm2 (GeneID 76123),2,52.5,53.7,inactive
Gpsm2 (GeneID 76123),3,64.1,32.7,inactive
Serpine1 (GeneID 18787),1,68.7,91.3,inactive
Serpine1 (GeneID 18787),2,59.2,85.6,inactive
Serpine1 (GeneID 18787),3,96.7,80.4,inactive
Mxra7 (GeneID 67622),1,17.5,23.7,inactive
Mxra7 (GeneID 67622),2,104,79.2,inactive
Mxra7 (GeneID 67622),3,74,79.6,inactive
Clu (GeneID 12759),1,89.2,96.8,inactive
